Where two headings read alike, the source gives them in different places. These are yes or no findings as the source states them, for the method shown. Binding seen in cells or lysates may run through a third protein. Binding calls can cover weak binding; strength is not graded here. Blank lines part the entries; values can stand above or below the molecule they belong to.
Columns and labels:
[1] = biological target: Mutant KIT (MT-KIT) of GIST430 cells (exon 11 in-frame deletion) (human (endogenous in GIST430)) (UniProt P10721); assay: co-IP; 500 µg of GIST cell lysate mixed with a KIT antibody (Cell Signaling Technology) or control IgG and protein A/G PLUS-Agarose, 4 °C overnight; washed, eluted by boiling; western blot of endogenous partners
[2] = biological target: Mutant KIT (MT-KIT) of GIST430 cells (exon 11 in-frame deletion) (human (endogenous in GIST430)) (UniProt P10721); assay: as above; remark: listed apart in the source

Protein sequences, listed by entry. Tags and fused reporters are not part of them. Lines headed by an entry give the natural chain unless they say otherwise; changes in a name come on top.
UniProt P10721: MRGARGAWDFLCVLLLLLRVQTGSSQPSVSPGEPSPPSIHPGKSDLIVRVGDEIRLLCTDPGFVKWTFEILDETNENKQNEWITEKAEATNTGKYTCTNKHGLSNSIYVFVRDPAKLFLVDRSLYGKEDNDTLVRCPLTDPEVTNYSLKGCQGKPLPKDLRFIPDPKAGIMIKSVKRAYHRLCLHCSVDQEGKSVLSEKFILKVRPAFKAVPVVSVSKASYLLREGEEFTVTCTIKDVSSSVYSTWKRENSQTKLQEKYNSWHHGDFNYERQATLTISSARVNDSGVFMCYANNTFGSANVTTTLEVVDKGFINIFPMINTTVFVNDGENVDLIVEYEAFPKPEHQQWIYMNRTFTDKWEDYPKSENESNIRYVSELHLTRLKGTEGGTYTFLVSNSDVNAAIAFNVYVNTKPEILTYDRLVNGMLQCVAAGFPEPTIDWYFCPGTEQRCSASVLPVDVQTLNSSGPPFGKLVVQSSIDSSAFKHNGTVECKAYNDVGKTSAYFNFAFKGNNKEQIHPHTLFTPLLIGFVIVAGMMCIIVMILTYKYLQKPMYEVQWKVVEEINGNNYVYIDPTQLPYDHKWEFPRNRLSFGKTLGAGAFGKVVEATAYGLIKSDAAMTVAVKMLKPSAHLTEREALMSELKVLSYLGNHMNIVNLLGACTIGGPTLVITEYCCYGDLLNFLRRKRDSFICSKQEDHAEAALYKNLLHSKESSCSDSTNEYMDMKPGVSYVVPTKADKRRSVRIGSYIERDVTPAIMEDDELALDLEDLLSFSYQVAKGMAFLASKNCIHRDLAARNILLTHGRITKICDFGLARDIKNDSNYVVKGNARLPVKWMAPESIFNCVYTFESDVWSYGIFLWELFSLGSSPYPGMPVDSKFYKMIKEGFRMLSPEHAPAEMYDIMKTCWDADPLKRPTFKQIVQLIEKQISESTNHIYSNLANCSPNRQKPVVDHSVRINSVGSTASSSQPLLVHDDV
UniProt P62993: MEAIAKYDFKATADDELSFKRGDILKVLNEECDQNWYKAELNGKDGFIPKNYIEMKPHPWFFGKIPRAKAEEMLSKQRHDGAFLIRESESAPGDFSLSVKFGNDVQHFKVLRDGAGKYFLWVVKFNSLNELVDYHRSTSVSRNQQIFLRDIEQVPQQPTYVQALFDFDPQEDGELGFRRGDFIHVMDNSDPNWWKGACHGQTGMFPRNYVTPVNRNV

- binding [1]: binds
Molecule: GRB2 (from UniProt P62993 1-217)

- binding [2]: binds
B1: Basic leucine zipper nuclear factor 1 (BLZF1) (protein, UniProt Q9H2G9 1-400)
chain: MTTKNLETKVTVTSSPIRGAGDGMETEEPPKSVEVTSGVQSRKHHSLQSPWKKAVPSESPGVLQLGKMLTEKAMEVKAVRILVPKAAITHDIPNKNTKVKSLGHHKGEFLGQSEGVIEPNKELSEVKNVLEKLKNSERRLLQDKEGLSNQLRVQTEVNRELKKLLVASVGDDLQYHFERLAREKNQLILENEALGRNTAQLSEQLERMSIQCDVWRSKFLASRVMADELTNSRAALQRQNRDAHGAIQDLLSEREQFRQEMIATQKLLEELLVSLQWGREQTYSPSVQPHSTAELALTNHKLAKAVNSHLLGNVGINNQKKIPSTVEFCSTPAEKMAETVLRILDPVTCKESSPDNPFFESSPTTLLATKKNIGRFHPYTRYENITFNCCNHCRGELIAL

Reference: PMC10589262
